Measurements as given in paper doi:10.1101/2020.08.12.247874.
Results are given in words; binding and its absence hold for the method and conditions named. Some results given as binding are weak or reduced against the parent protein; the word gives no strength.

By UniProt entry, the sequences of proteins in these tests, tags left out. Residues count along the entry.
UniProt O14492, residues 417-515: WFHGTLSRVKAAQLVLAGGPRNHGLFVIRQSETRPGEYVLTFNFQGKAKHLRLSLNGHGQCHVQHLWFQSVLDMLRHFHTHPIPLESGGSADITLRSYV

Molecular target: phosphopeptide (F1163 – F1183, containing pY1173) derived from epidermal growth factor receptor (EGFR) (UniProt P00533)
Assay: qYY2H

binding: binds
Substance: SH2 domains of the adapter protein APS (from UniProt O14492 417-515) (domain or fragment)
